The nature of this assay: qHTS Assay to Find Inhibitors of Chronic Active B-Cell Receptor Signaling. As to conditions: ABC-DLBCL IkBa-CBG/CBR reporter, luminescence ratio (green luciferase fused to IkBa over red control in TMD8 lymphoma cells), 4 h. Put shortly:
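Compounds up to 46 uM were incubated four hours with TMD8 cells whose green CBG68 luciferase is fused to IkappaBalpha; red CBR luminescence normalised the signal, and concentration-effect curves were fitted to fusion, red and ratio data.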
For orientation: Quantitative high-throughput screening tests each substance at several concentrations.

Setting [1] is: measured here: CBR red luminescence, cell number.
Setting [2] is: measured here: IkBa-CBG green luminescence.

In PubChem BioAssay AID493014 (National Center for Advancing Translational Sciences (NCATS), 2011) one finds AC50 data, which are given here for 38 compounds.

Molecules are shown by their SMILES. This is one part of the list. The main result of the screen is listed elsewhere. These columns were measured beside it and carry no call. The list favours compounds with an active or inconclusive main result. The note in brackets gives the kind of curve behind each potency; many fits are weak.

Consider `COC(=O)C1=C(C)N(C(C)C)C(=O)C1(NC(C)=O)C(F)(F)F` (stereo unspecified), for which, under setting [1], the AC50 was 20.6 µM [rising, single point].
The same measure, in the same setting: the result for `C/C(=N\NC(=O)c1nn(C)cc1Br)c1ccc(NC(=O)c2ccncc2)cc1` reads 23.1 µM [falling, single point].
Regarding `N#C/C(=C\c1ccc([N+](=O)[O-])cc1)C(=O)Nc1ccccc1O`, under setting [1], the AC50 was 2.06 µM [falling, full curve, poor fit].
The same measure, in the same setting: the result for `COc1ccc(OCCSc2ncc(CO)n2C)cc1` reads 0.316 µM [rising, full curve, poor fit].
On the same count and under the same terms, the value for `Cc1cc([N+](=O)[O-])nn1CC(=O)N/N=C/c1ccc(O)cc1O` was 8.91 µM [falling, partial curve, poor fit].
For `COc1cc(C(=O)OCc2ccccc2C#N)ccc1OCC(=O)N1CCOCC1`, the AC50 under setting [1] was 11.6 µM [rising, partial curve].
Still for that read-out and setting: the value for `C=CC[C@@H](Cc1ccc(F)cc1)C(=O)OC[C@H]1CCCN1C(=O)[C@H](CC=C)CC(=O)N[C@H](CO)Cc1ccccc1` was 20.6 µM [falling, single point]; that for `CN1CCN(C(=O)/C(=C/c2ccco2)NC(=O)c2ccccc2)CC1` was 20 µM [rising, partial curve, poor fit]; that for `Cc1cc(S(=O)(=O)N(Cc2ccccc2)Cc2ccc(N(C)C)cc2)ccc1-n1cnnn1` was 0.231 µM [falling, full curve, poor fit].
As for `Cc1nnc(SCc2ccc(C(=O)c3ccc(Cl)cc3)o2)n1-c1ccccc1`, the AC50 under setting [1] was 20.6 µM [falling, single point] and the concentration at half-maximal activity (AC50) under setting [2] is 29.1 µM [rising, partial curve, poor fit].
Take `COC(=O)C1=C(C)N=C2SCCC(=O)N2C1/C=C/c1ccccc1` (stereo unspecified): under setting [1], the AC50 is 14.1 µM [rising, single point].
Still for that read-out and setting: the result for `COc1cccc(-c2nnc(SCc3ccccn3)n2C)c1` reads 16.4 µM [falling, single point].
Turning to `CC(C)c1[nH]nc2c1C(c1ccco1)C(C#N)=C(N)O2` (stereo unspecified), the AC50 under setting [1] is 5.62 µM [falling, single point] and the AC50 under setting [2] is 35.5 µM [falling, single point].
For `Cc1ccc(C)c(NC(=O)c2ccccc2O)c1`, the half-maximal activity concentration (AC50) under setting [1] was 6.31 µM [rising, partial curve, poor fit].
Same read-out and setting: the result for `CC(=O)Nc1ccc(/C=N/Nc2nc3ccccc3s2)cc1` reads 17.8 µM [falling, single point]; that for `COc1ccc(CSc2nnc(N)s2)cc1F`, 35.5 µM [rising, single point].
For `O=C(N/N=C/c1ccc(Cl)cc1)c1cc(-c2cccnc2)nc2ccccc12`, the AC50 under setting [2] was 3.16 µM [falling, single point].
With `S=c1nc(-c2ccco2)[nH][nH]1`, the concentration at half-maximal activity (AC50) under setting [1] was 6.51 µM [rising, full curve].
Turning to `O=C(Nc1cnccn1)c1csc2ccccc12`, under setting [1], the AC50 is 16.4 µM [falling, single point].
Still for that read-out and setting: the value for `COC(=O)c1ccc(C(=O)OC)c(NC(=O)COC(=O)C23CC4CC(CC(O)(C4)C2)C3)c1` was 14.6 µM [rising, partial curve, poor fit]; that for `COCCNC(=O)NC1(C(F)(F)F)Oc2ccc(Cl)cc2O1` (stereo unspecified) was 3.55 µM [rising, full curve]; that for `CN(C(=O)CCOc1ccccc1)c1c(N)n(Cc2ccccc2)c(=O)[nH]c1=O` was 20.6 µM [falling, single point].
As to `CCCc1cc(=O)oc2c3c(c(Cl)cc12)OCN(CCCO)C3`, the AC50 under setting [1] is 0.178 µM [falling, full curve, poor fit].
`Cc1ccc(NC(=O)CSc2ncn[nH]2)cc1S(=O)(=O)N1CCOCC1`: under setting [1], the half-maximal activity concentration (AC50) was 11.2 µM [rising, partial curve].
For the compound `O=C(Nc1cccc(S(=O)(=O)NC2=NCCC2)c1)c1cn(-c2ccccc2)nc1-c1ccc(F)cc1`, the half-maximal activity concentration (AC50) under setting [1] was 16.4 µM [falling, partial curve, poor fit].
For `COc1ccccc1Nc1nn2c(=O)c3ccc(C(=O)NCc4cccs4)cc3nc2s1`, the AC50 under setting [1] was 7.94 µM [falling, partial curve].
Still for that read-out and setting: the value for `Cc1nn(C(C)C)c(C)c1CN1CCC(C(=O)Nc2cccc(-c3cccc(F)c3)c2)CC1` was 12.6 µM [falling, partial curve]; that for `COc1ccccc1/C=C/C=N/n1c(-c2ccccn2)n[nH]c1=S` was 14.1 µM [falling, partial curve]; that for `COc1ccc2c(c1)OC[C@H]1[C@H]2N2C(=O)c3cc(OC)c(OC)cc3NC(=O)[C@@]2(C)[C@H]1c1ccccc1` was 2.06 µM [rising, partial curve, poor fit].
On the same count and under the same terms, the result for `Cc1cccc(C)c1OC(=O)Cc1ccccc1[N+](=O)[O-]` reads 7.08 µM [rising, partial curve, poor fit].
`N#Cc1cccc(NC(=O)CSc2ccccc2)c1`: the AC50 under setting [1] was 3.66 µM [falling, single point].
Same read-out and setting: the value for `COc1ccc(Cn2nnnc2C(c2cc3cc(C)ccc3[nH]c2=O)N2CCOCC2)cc1` (stereo unspecified) was 12.6 µM [falling, partial curve]; that for `Cc1cc(C(=O)NNC(=O)CN2C(=O)NC(C)(c3ccccc3)C2=O)c(C)o1` (stereo unspecified) was 18.4 µM [falling, single point].
On to `COc1cc(OC)cc(C(=O)N[C@H](C(=O)OCC(=O)c2ccc(C)c([N+](=O)[O-])c2)C(C)C)c1`, for which the AC50 under setting [2] is 4.11 µM [rising, partial curve, poor fit].
As for `Cc1ccc(S(=O)(=O)N2[C@@H](c3ccc(Br)cc3)C(C(=O)O)=C[C@H]2CC2CCCC2)cc1`, under setting [1], the AC50 was 0.651 µM [falling, partial curve, poor fit].
Consider `CCOC(=O)C1=C(C)Nc2sc(C(=O)c3ccc(Br)cc3)c(N)c2C1c1ccc(C(=O)OC)cc1` (stereo unspecified), for which the half-maximal activity concentration (AC50) under setting [1] was 0.164 µM [rising, full curve, poor fit].
Turning to `NS(=O)(=O)c1ccc(N=Cc2c(O)c3ccccc3oc2=O)cc1`, the AC50 under setting [1] was 5.01 µM [falling, full curve].
As to `COC(=O)C1=C(C)NC2=C(C(=O)CCC2)C1c1coc2ccccc2c1=O` (stereo unspecified), the AC50 runs as follows: under setting [1], 23.1 µM [rising, partial curve]; under setting [2], 32.6 µM [falling, partial curve, poor fit].

Usually AC50 stands for the concentration giving half of the maximal activity seen.
